Laboratory results from patent US20250122295A1, “METHOD OF TREATMENT OF PHILADELPHIA CHROMOSOME POSITIVE LEUKEMIA” (CSL LIMITED, priority 2014, published 2025).
At least one structure is not confirmed: it was looked up by name or label, or the drawing left a doubt.

Test system: IL-3-induced STAT5 phosphorylation in CD34+ cells from newly diagnosed CML-CP patients
Details: dasatinib alone 100 nM, 20 ng/ml IL-3 for 10 min, n=3, FIG. 1 and 2

SMILES: Cc1nc(Nc2ncc(C(=O)Nc3c(C)cccc3Cl)s2)cc(N2CCN(CCO)CC2)n1 [dasatinib]
- inhibition of IL-3-induced STAT5 phosphorylation: only partially inhibit
